# Measurements: the supplement of paper PMC6411743
# ± gives the standard deviation of the averaged measurements. This is a selection; strong and weak results do not stand in their true shares.
# Key:
# Test in all cases: NP40-soluble protein abundance relative to vehicle (solubility fold change) (ratio); higher = more soluble protein in presence of ATP
# UniProt Q9H0G5 = target: T1, UniProt Q9H0G5
# T1 sequence (whole entry): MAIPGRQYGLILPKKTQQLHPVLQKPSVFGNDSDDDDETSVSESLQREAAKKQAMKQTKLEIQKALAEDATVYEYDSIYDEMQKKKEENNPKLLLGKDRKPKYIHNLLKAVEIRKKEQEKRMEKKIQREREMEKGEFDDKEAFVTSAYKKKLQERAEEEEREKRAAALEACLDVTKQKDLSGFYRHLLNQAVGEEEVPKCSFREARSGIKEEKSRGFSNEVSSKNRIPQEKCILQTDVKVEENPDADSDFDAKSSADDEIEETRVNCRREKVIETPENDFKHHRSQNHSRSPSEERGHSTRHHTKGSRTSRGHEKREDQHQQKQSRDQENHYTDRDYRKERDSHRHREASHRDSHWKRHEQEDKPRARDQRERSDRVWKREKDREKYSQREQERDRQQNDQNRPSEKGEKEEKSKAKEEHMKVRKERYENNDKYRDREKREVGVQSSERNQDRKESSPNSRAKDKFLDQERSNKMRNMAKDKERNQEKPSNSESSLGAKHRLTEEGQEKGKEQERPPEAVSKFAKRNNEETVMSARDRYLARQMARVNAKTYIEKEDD
# Method in brief: (§1)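 Jurkat crude lysate prepared with a Dounce homogeniser was treated at eight concentrations spanning 0.1 to 10 mM, 10 min at room temperature then 3 min at 37 °C. Solubilisation with 0.8% NP40 and benzonase and ultracentrifugation preceded TMT labelling of the supernatant for LC-MS/MS. Fold change against the detergent-processed vehicle was determined per replicate from vsn-normalised intensities, across three independent experiments.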
# [1] = target: T2, UniProt Q9H0R5 and related entries
# T2 sequence (whole entry): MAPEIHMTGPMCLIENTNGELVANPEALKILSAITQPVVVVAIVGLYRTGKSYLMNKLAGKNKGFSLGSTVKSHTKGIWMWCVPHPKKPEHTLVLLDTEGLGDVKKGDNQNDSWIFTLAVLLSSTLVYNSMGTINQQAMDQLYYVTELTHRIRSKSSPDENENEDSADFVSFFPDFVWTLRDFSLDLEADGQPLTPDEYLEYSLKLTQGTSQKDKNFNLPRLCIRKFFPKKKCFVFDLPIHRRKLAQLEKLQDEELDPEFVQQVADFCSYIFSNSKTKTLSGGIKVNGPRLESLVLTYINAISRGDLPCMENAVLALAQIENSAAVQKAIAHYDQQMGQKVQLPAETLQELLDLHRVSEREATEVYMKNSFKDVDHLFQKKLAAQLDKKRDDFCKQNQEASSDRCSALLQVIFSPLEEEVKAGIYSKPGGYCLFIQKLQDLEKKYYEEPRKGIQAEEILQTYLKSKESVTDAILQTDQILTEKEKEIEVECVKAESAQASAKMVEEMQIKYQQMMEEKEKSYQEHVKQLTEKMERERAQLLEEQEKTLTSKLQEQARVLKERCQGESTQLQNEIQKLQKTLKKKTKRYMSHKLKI
# Method in brief: as §1
# UniProt Q9H0X4 = target: T3, UniProt Q9H0X4
# T3 sequence (whole entry): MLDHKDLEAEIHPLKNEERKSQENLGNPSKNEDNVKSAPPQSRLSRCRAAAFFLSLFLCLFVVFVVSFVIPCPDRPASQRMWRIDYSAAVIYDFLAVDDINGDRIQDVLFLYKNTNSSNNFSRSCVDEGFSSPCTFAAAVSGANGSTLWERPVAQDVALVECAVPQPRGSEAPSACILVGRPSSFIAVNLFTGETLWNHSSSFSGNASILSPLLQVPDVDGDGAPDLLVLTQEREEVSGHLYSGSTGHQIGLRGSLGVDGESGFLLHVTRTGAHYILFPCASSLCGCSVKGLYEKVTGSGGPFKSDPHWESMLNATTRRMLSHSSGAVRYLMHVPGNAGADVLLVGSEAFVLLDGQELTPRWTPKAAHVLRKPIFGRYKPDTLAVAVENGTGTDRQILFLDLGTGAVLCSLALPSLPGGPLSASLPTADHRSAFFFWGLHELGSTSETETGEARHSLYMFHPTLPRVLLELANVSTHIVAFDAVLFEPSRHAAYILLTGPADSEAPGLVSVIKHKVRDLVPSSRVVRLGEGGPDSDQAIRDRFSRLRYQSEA
# Method in brief: as §1
# [2] = target: T4, UniProt Q9H270 and related entries
# T4 sequence (whole entry): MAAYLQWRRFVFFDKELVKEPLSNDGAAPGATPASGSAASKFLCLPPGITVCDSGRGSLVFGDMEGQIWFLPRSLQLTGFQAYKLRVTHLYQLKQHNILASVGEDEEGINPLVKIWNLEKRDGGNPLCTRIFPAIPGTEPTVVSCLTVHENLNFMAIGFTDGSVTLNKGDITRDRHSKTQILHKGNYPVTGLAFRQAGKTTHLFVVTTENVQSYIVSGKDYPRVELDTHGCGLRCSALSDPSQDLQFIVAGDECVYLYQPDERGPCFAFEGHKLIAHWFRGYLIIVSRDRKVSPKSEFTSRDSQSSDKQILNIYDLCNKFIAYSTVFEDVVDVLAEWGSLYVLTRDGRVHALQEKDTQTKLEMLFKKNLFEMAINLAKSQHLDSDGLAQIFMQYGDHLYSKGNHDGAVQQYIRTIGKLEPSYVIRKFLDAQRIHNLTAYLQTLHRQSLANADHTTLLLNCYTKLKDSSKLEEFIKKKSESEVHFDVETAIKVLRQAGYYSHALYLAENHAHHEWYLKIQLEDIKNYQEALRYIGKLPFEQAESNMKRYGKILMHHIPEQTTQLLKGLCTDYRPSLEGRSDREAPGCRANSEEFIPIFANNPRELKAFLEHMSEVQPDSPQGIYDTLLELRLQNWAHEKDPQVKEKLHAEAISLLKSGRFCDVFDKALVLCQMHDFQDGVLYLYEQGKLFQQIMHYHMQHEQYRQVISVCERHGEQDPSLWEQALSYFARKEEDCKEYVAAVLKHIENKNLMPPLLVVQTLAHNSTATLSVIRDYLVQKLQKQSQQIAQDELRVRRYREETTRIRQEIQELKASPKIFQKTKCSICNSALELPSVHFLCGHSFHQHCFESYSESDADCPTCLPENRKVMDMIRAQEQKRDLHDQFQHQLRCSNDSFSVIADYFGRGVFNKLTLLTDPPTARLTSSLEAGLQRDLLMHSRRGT
# Method in brief: as §1
# [3] = target: T5, UniProt Q9H4L7 and related entries
# T5 sequence (whole entry): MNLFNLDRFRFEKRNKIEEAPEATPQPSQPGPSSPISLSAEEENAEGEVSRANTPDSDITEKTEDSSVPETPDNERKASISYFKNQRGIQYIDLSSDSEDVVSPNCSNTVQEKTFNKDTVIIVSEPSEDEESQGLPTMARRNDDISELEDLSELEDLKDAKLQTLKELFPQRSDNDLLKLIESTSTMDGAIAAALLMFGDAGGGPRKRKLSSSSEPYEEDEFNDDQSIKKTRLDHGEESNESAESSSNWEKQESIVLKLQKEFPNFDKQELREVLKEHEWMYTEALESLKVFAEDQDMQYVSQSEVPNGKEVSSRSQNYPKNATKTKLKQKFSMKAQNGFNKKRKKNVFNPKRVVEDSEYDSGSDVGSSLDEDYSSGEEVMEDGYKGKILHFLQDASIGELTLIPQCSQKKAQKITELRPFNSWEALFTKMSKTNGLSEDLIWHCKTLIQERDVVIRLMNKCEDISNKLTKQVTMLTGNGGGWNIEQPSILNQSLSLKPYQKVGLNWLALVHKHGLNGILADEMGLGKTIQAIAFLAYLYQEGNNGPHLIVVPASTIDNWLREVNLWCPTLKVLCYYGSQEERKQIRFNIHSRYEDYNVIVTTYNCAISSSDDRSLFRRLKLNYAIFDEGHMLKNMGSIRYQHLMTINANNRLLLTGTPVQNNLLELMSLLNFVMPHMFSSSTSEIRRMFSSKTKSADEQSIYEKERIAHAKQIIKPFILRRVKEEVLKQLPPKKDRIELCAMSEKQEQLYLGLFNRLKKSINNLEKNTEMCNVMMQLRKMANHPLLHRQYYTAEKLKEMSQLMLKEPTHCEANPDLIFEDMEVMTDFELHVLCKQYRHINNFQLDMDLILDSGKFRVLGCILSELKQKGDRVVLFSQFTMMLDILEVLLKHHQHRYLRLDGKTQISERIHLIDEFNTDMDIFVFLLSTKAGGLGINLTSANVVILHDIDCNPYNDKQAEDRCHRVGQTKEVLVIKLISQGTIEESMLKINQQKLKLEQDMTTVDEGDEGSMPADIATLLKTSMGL
# Method in brief: as §1
structure (smiles),measurement,setting,value
Nc1ncnc2c1ncn2[C@@H]1O[C@H](COP(=O)(O)OP(=O)(O)OP(=O)(O)O)[C@@H](O)[C@H]1O [adenosine triphosphate],NP40-soluble protein abundance,UniProt Q9H0G5; concentration: 1mM,1.09 ± 0.041
same,NP40-soluble protein abundance,UniProt Q9H0G5; concentration: 2mM,1.12 ± 0.034
same,NP40-soluble protein abundance,UniProt Q9H0G5; concentration: 4mM,1.17 ± 0.019
same,NP40-soluble protein abundance,UniProt Q9H0G5; concentration: 6mM,1.24 ± 0.054
same,NP40-soluble protein abundance,UniProt Q9H0G5; concentration: 8mM,1.19 ± 0.027
same,NP40-soluble protein abundance,UniProt Q9H0G5; concentration: 10mM,1.26 ± 0.037
same,NP40-soluble protein abundance,[1]; concentration: 1mM,0.972 ± 0.073
same,NP40-soluble protein abundance,[1]; concentration: 2mM,0.943 ± 0.021
same,NP40-soluble protein abundance,[1]; concentration: 4mM,0.945 ± 0.092
same,NP40-soluble protein abundance,[1]; concentration: 6mM,0.979 ± 0.057
same,NP40-soluble protein abundance,[1]; concentration: 8mM,0.9563 ± 0.0062
same,NP40-soluble protein abundance,[1]; concentration: 10mM,0.978 ± 0.094
same,NP40-soluble protein abundance,UniProt Q9H0X4; concentration: 1mM,0.933 ± 0.047
same,NP40-soluble protein abundance,UniProt Q9H0X4; concentration: 2mM,0.904 ± 0.057
same,NP40-soluble protein abundance,UniProt Q9H0X4; concentration: 4mM,0.937 ± 0.019
same,NP40-soluble protein abundance,UniProt Q9H0X4; concentration: 6mM,0.967 ± 0.046
same,NP40-soluble protein abundance,UniProt Q9H0X4; concentration: 8mM,0.902 ± 0.014
same,NP40-soluble protein abundance,UniProt Q9H0X4; concentration: 10mM,0.872 ± 0.089
same,NP40-soluble protein abundance,[2]; concentration: 1mM,1.04 ± 0.1
same,NP40-soluble protein abundance,[2]; concentration: 2mM,1.02 ± 0.067
same,NP40-soluble protein abundance,[2]; concentration: 4mM,1.03 ± 0.079
same,NP40-soluble protein abundance,[2]; concentration: 6mM,0.944 ± 0.095
same,NP40-soluble protein abundance,[2]; concentration: 8mM,1.03 ± 0.033
same,NP40-soluble protein abundance,[2]; concentration: 10mM,1.02 ± 0.044
same,NP40-soluble protein abundance,[3]; concentration: 1mM,1 ± 0.032
same,NP40-soluble protein abundance,[3]; concentration: 2mM,0.977 ± 0.031
same,NP40-soluble protein abundance,[3]; concentration: 4mM,0.971 ± 0.047

# 2 records drawn at random from those above, as already listed:
structure (smiles),measurement,setting,value
Nc1ncnc2c1ncn2[C@@H]1O[C@H](COP(=O)(O)OP(=O)(O)OP(=O)(O)O)[C@@H](O)[C@H]1O [adenosine triphosphate],NP40-soluble protein abundance,UniProt Q9H0G5; concentration: 4mM,1.17 ± 0.019
same,NP40-soluble protein abundance,UniProt Q9H0X4; concentration: 6mM,0.967 ± 0.046
